# ± gives the standard deviation of the averaged measurements. Only a part is listed here, and it is no random draw.
# Columns and labels:
# Assay in all cases: NP40-soluble protein abundance relative to vehicle (solubility fold change) (ratio); higher = more soluble protein in presence of ATP
# RP9 = biological target: T1, RP9 (UniProt Q8TA86)
# T1 sequence (whole entry): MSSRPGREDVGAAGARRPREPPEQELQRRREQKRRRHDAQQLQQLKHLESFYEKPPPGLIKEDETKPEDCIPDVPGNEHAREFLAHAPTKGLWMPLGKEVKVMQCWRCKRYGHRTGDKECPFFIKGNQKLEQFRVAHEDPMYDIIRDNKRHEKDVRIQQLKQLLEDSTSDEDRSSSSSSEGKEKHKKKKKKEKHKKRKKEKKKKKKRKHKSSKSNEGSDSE
# Outline: (§1)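 Each value is a fold change relative to the detergent-processed vehicle, calculated per replicate from vsn-normalised intensities. Jurkat crude lysate received eight concentrations (0.1 to 10 mM) for 10 min at room temperature and 3 min at 37 °C, then was solubilised in 0.8% NP40 with benzonase (60 min, 4 °C). The ultracentrifuged supernatant was TMT-labelled and run by LC-MS/MS in three independent experiments.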
# TTC9C = biological target: T2, TTC9C (UniProt Q8N5M4)
# T2 sequence (whole entry): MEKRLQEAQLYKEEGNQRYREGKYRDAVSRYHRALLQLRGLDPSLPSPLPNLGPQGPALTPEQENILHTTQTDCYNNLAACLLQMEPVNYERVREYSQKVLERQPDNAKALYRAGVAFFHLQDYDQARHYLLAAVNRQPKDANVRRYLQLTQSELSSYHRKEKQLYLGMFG
# Outline: as §1
# USP38 = biological target: T3, USP38 (UniProt Q8NB14)
# T3 sequence (whole entry): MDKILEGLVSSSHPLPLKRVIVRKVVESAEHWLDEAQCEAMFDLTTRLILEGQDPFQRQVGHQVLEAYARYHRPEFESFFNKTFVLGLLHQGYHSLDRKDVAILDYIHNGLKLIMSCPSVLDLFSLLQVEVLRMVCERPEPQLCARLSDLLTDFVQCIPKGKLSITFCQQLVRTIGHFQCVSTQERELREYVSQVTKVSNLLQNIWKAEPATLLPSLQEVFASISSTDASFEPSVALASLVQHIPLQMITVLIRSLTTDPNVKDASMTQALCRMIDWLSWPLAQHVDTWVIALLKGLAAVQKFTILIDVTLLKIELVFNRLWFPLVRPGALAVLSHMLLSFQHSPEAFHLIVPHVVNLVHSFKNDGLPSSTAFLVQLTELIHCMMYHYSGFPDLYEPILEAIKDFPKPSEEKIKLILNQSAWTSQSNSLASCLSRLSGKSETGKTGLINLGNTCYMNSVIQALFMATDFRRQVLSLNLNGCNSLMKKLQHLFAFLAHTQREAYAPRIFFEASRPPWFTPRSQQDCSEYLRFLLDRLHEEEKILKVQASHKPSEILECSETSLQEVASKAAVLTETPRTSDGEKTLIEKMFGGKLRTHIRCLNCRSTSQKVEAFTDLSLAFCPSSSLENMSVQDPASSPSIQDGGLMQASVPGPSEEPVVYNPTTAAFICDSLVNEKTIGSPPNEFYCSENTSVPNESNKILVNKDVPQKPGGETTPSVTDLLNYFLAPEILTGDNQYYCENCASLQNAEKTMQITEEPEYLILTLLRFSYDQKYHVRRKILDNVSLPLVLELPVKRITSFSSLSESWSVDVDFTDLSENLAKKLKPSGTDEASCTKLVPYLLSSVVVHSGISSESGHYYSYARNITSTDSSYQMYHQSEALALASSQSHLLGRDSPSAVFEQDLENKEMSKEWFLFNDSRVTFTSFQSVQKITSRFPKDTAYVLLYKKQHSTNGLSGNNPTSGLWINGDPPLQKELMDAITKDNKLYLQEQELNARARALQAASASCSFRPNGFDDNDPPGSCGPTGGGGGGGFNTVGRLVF
# Outline: as §1
# [1] = biological target: T4, UniProt Q8IY57 and related entries
# T4 sequence (whole entry): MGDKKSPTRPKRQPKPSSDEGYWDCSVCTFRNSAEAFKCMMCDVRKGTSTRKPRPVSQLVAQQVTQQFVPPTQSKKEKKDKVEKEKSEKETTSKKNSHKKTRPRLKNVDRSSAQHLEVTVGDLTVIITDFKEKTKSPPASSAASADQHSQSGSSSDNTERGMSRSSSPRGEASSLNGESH
# Outline: as §1
# [2] = biological target: T5, UniProt Q8IYB5-2|Q8IYB5-3|Q8IYB5
# T5 sequence (whole entry): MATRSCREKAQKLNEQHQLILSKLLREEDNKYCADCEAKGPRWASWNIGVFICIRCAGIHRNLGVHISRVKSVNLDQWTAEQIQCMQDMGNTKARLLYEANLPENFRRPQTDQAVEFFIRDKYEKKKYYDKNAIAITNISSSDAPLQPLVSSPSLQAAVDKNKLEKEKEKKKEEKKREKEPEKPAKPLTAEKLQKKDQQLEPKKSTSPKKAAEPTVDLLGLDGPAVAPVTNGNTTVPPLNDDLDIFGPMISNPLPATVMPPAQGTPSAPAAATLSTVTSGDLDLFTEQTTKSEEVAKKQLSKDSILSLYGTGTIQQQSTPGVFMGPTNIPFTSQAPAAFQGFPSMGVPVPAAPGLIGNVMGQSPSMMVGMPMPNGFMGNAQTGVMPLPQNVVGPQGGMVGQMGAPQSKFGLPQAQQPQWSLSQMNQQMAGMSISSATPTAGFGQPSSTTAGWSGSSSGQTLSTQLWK
# Outline: as §1
# [3] = biological target: T6, UniProt Q8N0Y2 and related entries
# T6 sequence (whole entry): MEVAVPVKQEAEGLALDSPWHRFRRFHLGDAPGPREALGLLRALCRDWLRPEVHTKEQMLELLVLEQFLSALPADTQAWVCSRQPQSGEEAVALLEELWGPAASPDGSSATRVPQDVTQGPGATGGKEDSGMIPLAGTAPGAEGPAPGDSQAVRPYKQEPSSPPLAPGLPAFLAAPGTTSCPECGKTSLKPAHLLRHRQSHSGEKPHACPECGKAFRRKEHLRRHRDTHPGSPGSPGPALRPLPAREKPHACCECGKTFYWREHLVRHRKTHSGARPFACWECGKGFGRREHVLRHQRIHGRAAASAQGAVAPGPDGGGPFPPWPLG
# Outline: as §1
smiles,measurement,setting,value
Nc1ncnc2c1ncn2[C@@H]1O[C@H](COP(=O)(O)OP(=O)(O)OP(=O)(O)O)[C@@H](O)[C@H]1O [adenosine triphosphate],NP40-soluble protein abundance,RP9; concentration: 2mM,1.01 ± 0.12
same,NP40-soluble protein abundance,RP9; concentration: 4mM,1.02 ± 0.076
same,NP40-soluble protein abundance,RP9; concentration: 6mM,1.03 ± 0.096
same,NP40-soluble protein abundance,RP9; concentration: 8mM,0.881 ± 0.1
same,NP40-soluble protein abundance,RP9; concentration: 10mM,0.922 ± 0.17
same,NP40-soluble protein abundance,TTC9C; concentration: 1mM,0.917 ± 0.032
same,NP40-soluble protein abundance,TTC9C; concentration: 2mM,0.913 ± 0.02
same,NP40-soluble protein abundance,TTC9C; concentration: 4mM,0.8926 ± 0.0082
same,NP40-soluble protein abundance,TTC9C; concentration: 6mM,0.939 ± 0.044
same,NP40-soluble protein abundance,TTC9C; concentration: 8mM,0.893 ± 0.06
same,NP40-soluble protein abundance,TTC9C; concentration: 10mM,0.865 ± 0.031
same,NP40-soluble protein abundance,USP38; concentration: 1mM,1.08 ± 0.074
same,NP40-soluble protein abundance,USP38; concentration: 2mM,1.07 ± 0.061
same,NP40-soluble protein abundance,USP38; concentration: 4mM,1.01 ± 0.16
same,NP40-soluble protein abundance,USP38; concentration: 6mM,0.971 ± 0.16
same,NP40-soluble protein abundance,USP38; concentration: 8mM,1.05 ± 0.059
same,NP40-soluble protein abundance,USP38; concentration: 10mM,1.06 ± 0.071
same,NP40-soluble protein abundance,[1]; concentration: 1mM,0.929 ± 0.072
same,NP40-soluble protein abundance,[1]; concentration: 2mM,0.992 ± 0.019
same,NP40-soluble protein abundance,[1]; concentration: 4mM,1.02 ± 0.19
same,NP40-soluble protein abundance,[1]; concentration: 6mM,0.892 ± 0.13
same,NP40-soluble protein abundance,[1]; concentration: 8mM,1.08 ± 0.23
same,NP40-soluble protein abundance,[1]; concentration: 10mM,1.05 ± 0.056
same,NP40-soluble protein abundance,[2]; concentration: 1mM,0.986 ± 0.026
same,NP40-soluble protein abundance,[2]; concentration: 2mM,1.03 ± 0.045
same,NP40-soluble protein abundance,[2]; concentration: 4mM,0.985 ± 0.065
same,NP40-soluble protein abundance,[2]; concentration: 6mM,1.03 ± 0.072
same,NP40-soluble protein abundance,[2]; concentration: 8mM,0.96 ± 0.11
same,NP40-soluble protein abundance,[2]; concentration: 10mM,0.984 ± 0.033
same,NP40-soluble protein abundance,[3]; concentration: 1mM,1.1 ± 0.031
same,NP40-soluble protein abundance,[3]; concentration: 2mM,1.09 ± 0.059
same,NP40-soluble protein abundance,[3]; concentration: 4mM,1.02 ± 0.095

# Shown bar-delimited: entries from further up.
smiles | measurement | setting | value
Nc1ncnc2c1ncn2[C@@H]1O[C@H](COP(=O)(O)OP(=O)(O)OP(=O)(O)O)[C@@H](O)[C@H]1O [adenosine triphosphate] | NP40-soluble protein abundance | RP9; concentration: 6mM | 1.03 ± 0.096
same | NP40-soluble protein abundance | TTC9C; concentration: 8mM | 0.893 ± 0.06
same | NP40-soluble protein abundance | USP38; concentration: 6mM | 0.971 ± 0.16
same | NP40-soluble protein abundance | USP38; concentration: 8mM | 1.05 ± 0.059
same | NP40-soluble protein abundance | [2]; concentration: 10mM | 0.984 ± 0.033
same | NP40-soluble protein abundance | [3]; concentration: 2mM | 1.09 ± 0.059
